These results are taken from article PMC10933368.

Chains of the proteins cited; added tags and fusions are not shown. Lines headed by an entry give the natural chain unless they say otherwise; changes in a name come on top.
UniProt E9AM47: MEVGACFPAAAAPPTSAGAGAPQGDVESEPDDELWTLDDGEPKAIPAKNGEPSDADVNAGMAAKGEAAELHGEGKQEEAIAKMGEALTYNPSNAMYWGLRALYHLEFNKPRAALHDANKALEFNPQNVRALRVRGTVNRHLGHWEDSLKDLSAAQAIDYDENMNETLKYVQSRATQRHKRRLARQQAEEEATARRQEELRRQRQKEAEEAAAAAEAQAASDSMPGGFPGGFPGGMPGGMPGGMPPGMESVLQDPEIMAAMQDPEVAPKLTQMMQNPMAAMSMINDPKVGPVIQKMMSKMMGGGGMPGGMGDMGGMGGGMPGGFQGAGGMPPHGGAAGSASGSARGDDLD
UniProt E9ALS6: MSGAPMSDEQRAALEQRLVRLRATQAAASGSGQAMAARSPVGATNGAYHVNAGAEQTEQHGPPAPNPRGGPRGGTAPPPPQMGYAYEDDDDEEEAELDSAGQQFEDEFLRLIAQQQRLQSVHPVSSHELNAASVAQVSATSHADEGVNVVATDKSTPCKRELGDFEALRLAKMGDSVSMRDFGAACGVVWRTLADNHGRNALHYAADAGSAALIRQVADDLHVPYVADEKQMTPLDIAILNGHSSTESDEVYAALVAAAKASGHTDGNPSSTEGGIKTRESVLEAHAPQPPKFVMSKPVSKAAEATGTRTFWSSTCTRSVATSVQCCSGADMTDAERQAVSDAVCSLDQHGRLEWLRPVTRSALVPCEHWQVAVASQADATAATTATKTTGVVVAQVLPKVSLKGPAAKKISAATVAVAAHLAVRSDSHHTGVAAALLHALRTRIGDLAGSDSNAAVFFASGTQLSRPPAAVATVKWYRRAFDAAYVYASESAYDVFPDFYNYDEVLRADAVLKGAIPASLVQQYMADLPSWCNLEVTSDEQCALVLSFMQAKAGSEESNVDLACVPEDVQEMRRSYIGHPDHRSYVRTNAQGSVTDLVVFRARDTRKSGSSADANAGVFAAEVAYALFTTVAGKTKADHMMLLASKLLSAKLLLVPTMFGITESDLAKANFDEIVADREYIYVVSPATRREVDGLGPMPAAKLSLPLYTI
UniProt E9AQR7: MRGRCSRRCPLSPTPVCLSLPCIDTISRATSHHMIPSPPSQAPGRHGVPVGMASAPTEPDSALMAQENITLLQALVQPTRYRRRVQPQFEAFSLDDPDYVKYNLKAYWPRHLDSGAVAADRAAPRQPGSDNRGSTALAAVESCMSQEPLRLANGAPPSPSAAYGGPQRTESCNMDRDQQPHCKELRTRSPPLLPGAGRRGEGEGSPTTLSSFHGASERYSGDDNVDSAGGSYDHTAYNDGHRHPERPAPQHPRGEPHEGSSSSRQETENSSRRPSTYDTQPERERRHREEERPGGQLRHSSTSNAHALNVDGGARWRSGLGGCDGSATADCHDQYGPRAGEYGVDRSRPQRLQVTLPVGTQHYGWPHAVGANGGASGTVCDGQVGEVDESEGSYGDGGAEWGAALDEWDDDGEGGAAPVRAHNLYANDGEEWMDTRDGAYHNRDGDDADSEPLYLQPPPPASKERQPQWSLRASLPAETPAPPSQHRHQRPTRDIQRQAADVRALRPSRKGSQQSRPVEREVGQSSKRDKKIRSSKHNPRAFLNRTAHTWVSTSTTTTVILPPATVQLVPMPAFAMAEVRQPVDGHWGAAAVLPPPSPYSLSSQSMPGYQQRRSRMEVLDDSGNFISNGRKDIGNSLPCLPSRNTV
UniProt E9B5D9: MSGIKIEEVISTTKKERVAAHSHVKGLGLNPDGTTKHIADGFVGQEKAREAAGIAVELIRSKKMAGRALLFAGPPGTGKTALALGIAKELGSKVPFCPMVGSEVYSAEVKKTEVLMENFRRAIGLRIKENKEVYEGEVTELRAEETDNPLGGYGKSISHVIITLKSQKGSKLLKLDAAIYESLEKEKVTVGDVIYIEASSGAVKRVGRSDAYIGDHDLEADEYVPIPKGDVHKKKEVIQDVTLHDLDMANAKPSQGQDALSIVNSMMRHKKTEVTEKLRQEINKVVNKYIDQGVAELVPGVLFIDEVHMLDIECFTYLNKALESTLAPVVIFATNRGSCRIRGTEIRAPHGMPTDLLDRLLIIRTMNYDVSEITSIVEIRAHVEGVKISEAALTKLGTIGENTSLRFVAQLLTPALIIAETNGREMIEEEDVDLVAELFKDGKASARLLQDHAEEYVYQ
UniProt E9B552: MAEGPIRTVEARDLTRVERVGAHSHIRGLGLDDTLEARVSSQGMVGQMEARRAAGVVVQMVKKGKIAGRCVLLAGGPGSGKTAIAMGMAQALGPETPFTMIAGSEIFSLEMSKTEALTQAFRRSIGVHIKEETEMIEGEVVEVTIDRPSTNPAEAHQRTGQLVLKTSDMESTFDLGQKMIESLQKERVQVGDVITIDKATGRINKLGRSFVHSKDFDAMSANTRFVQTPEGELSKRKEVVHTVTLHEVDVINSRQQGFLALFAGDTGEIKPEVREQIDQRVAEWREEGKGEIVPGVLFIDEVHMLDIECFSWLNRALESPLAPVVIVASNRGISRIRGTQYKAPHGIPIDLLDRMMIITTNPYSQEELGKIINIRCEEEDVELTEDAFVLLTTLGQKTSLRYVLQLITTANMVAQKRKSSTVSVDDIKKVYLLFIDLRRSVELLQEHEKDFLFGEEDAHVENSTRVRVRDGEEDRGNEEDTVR

Assay [1] deals with TOR1 (LmxM.36.6320), L. mexicana (L. mexicana) (UniProt E9AU66). The experiment in a line: affinity purification with mass spectrometry; Parasites cross-linked with 1 mM DSP (10 min, 26 °C), lysed in 1% IgePal-CA-630, 50 mM Tris pH 7.5, 250 mM NaCl, 1 mM EDTA; Twin-Strep baits held on MagStrep XT resin (2 h, 4 °C), eluted with 50 mM biotin; label-free quantification against the control bait LmxM.29.3580, SAINTq, FDR 10%.

For assay [2], the target named is RPTOR1 (LmxM.25.0610), L. mexicana (L. mexicana) (UniProt E9AXD8). The assay is described as above.

These are yes or no findings as the source states them, for the method shown. In cells and extracts the contact can be indirect. Here binding means that the protein was enriched with, or labelled near, the bait; the list need not be complete.

Consider “HIP (HSC-70 interacting protein, LmxM.08_29.0320) (from UniProt E9AM47)”, for which the binding entry in assay [1] is given as “binds”.
As to LmxM.08_29.1470 (from UniProt E9ALS6), the binding result in assay [1] and in assay [2] was “binds” each time.
On to LmxM.16.1080 (from UniProt E9AQR7), for which the binding entry in assay [1] and in assay [2] was “binds” in each case.
Regarding “RPTOR1 (LmxM.25.0610), L. mexicana (from UniProt E9AXD8)”, the binding result in assay [1] is “binds”.
For the substance “RUVBL1 (LmxM.33.3500) (from UniProt E9B5D9)”, the binding entry in assay [1] is “binds”.
Same read-out and setting: the result for “RUVBL2 (LmxM.33.2610) (from UniProt E9B552)” reads “binds”.
In the case of “TOR1 (LmxM.36.6320), L. mexicana (from UniProt E9AU66)”, in assay [2], the binding result is given as “binds”.
